Our source for the T/C and survivor count values is PubChem BioAssay AID248 (DTP/NCI, 2004).

The experiment deals with L1210 leukemia ip in BDF1 mice, survival T/C. Nature of the experiment: NCI In Vivo Anticancer Drug Screen. Data for tumor model L1210 Leukemia (intraperitoneal) in B6D2F1 (BDF1) mice. The settings on record: T/C endpoint: mean survival time, higher T/C = longer survival.
Where [1] appears, read: dose: 100.0 mg/kg/injection, schedule: Q01DX001 (ip), vehicle: saline.
Where [2] appears, read: dose: 100.0 mg/kg/injection, schedule: Q04DX002 (ip), vehicle: saline.
Where [3] appears, read: dose: 100.0 mg/kg/injection, schedule: Q04DX003 (ip), vehicle: saline.
[4] abbreviates: dose: 200.0 mg/kg/injection, schedule: Q01DX001 (ip), vehicle: saline.
Where [5] appears, read: dose: 200.0 mg/kg/injection, schedule: Q04DX002 (ip), vehicle: saline.
Where [6] appears, read: dose: 400.0 mg/kg/injection, schedule: Q01DX001 (ip), vehicle: saline.
Where [7] appears, read: dose: 400.0 mg/kg/injection, schedule: Q04DX002 (ip), vehicle: saline.
Setting [8] is: dose: 50.0 mg/kg/injection, schedule: Q04DX003 (ip), vehicle: Klucel (hydroxypropylcellulose) (HPC).
Setting [9] is: dose: 100.0 mg/kg/injection, schedule: Q04DX003 (ip), vehicle: Klucel (hydroxypropylcellulose) (HPC).
[10] abbreviates: dose: 200.0 mg/kg/injection, schedule: Q04DX003 (ip), vehicle: Klucel (hydroxypropylcellulose) (HPC).
The mark [11] stands for this setting: dose: 200.0 mg/kg/injection, schedule: Q01DX001 (ip), vehicle: carboxymethylcellulose (CMC).
[12] abbreviates: dose: 300.0 mg/kg/injection, schedule: Q01DX001 (ip), vehicle: carboxymethylcellulose (CMC).

The list is a part of this screen's results and no random one: its compounds were picked by chemical class. Not every dose and run of a compound is shown. T/C is the treated group as % of the vehicle group. Some doses have a count of surviving animals in place of a T/C: the source files T/C as zero there, which appears to mark a toxic dose or a test without result, not a measured value. Some survivor counts are full or nearly so, which does not show that the dose was tolerated: the source hardly ever lists a survival T/C far under the control, and the zero likely stands for such cases as well. Survivors were counted at the toxicity check, usually on the fifth day, unless a day is given; later deaths do not show. Schedules are NCI's codes, read here as Q, the interval in days (D) or hours (H), X, the number of doses. Some doses were run more than once; the results are listed from low to high. Where survival is the endpoint, the PubChem record calls one and a half times the control and up active, and a quarter to a half above the control has no call in these data; cut-offs in other NCI protocols can differ. Some schedules carry Z or #; the key to these is not given. Some T/C values are marked as having no survivor count here; that says nothing about deaths at the dose. Some T/C values carry the count of animals alive at the toxicity check (mostly the fifth day); where neither a count nor a note follows, no animal had died by that day.

For `O=C1C(C(Cl)(Cl)Cl)OC(C(Cl)(Cl)Cl)N1C(O)C(Cl)(Cl)Cl` (stereo unspecified), the T/C is 94 % of control under setting [1]; 97 and 99 % of control (dose: 100.0 mg/kg/injection, schedule: Q01DX009 (ip), vehicle: saline); 100 % of control under setting [2]; 97 % of control under setting [3]; 97 % of control under setting [4]; 97 and 99 % of control (dose: 200.0 mg/kg/injection, schedule: Q01DX009 (ip), vehicle: saline). The T/C by setting is: under setting [5], 92 % of control; (dose: 200.0 mg/kg/injection, schedule: Q04DX003 (ip), vehicle: saline) 93 % of control; under setting [6], 105 % of control; (dose: 400.0 mg/kg/injection, schedule: Q01DX009 (ip), vehicle: saline) 89 and 108 % of control; under setting [7], 103 % of control; (dose: 400.0 mg/kg/injection, schedule: Q04DX003 (ip), vehicle: saline) 92 % of control.

Consider `Cc1n[nH]c(N=[N+]=[N-])n1`, for which the T/C by setting is: under setting [2], 101 % of control [survivor count not shown]; under setting [5], 98 % of control [survivor count not shown]; under setting [7], 96 % of control [survivor count not shown].

Take `CN(CCCl)N=Nc1ccc([N+](=O)[O-])cc1C(N)=O`: the T/C is, setting by setting: under setting [8], 102 % of control; under setting [9], 107 % of control; under setting [10], 123 % of control.

For `CCCC1OP(N)(=O)OCC1CC` (stereo unspecified), the T/C reads like this: (dose: 200.0 mg/kg/injection, schedule: Q01DX Z (ip), vehicle: saline) 97 % of control; (dose: 300.0 mg/kg/injection, schedule: Q01DX Z (ip), vehicle: saline) 100 % of control; (dose: 450.0 mg/kg/injection, schedule: Q01DX Z (ip), vehicle: saline) 111 % of control; (dose: 675.0 mg/kg/injection, schedule: Q01DX Z (ip), vehicle: saline) 96 % of control.

As for `CC(Sc1ccccc1[N+](=O)[O-])([N+](=O)[O-])[N+](=O)[O-]`, the T/C by setting is: under setting [1], 98 % of control; under setting [4], 101 % of control; under setting [6], 100 % of control [5 of 6 alive].

Turning to `O=C(O)CC(ON=C1c2c(cc([N+](=O)[O-])cc2[N+](=O)[O-])-c2cc([N+](=O)[O-])cc([N+](=O)[O-])c21)C(=O)O.c1ccccc1` (stereo unspecified), the T/C is 99 % of control under setting [2], 92 % of control under setting [5] and 92 % of control under setting [7].

With `CC1CN1P(=O)(Nc1ccccn1)N1CC1C` (stereo unspecified), the T/C was 122 % of control (dose: 29.0 mg/kg/injection, schedule: Q01DX009 (ip), vehicle: carboxymethylcellulose (CMC)); 134 % of control (dose: 44.0 mg/kg/injection, schedule: Q01DX009 (ip), vehicle: carboxymethylcellulose (CMC)); 135 % of control (dose: 66.0 mg/kg/injection, schedule: Q01DX009 (ip), vehicle: carboxymethylcellulose (CMC)); 120 and 127 % of control (dose: 66.0 mg/kg/injection, schedule: Q04DX003 (ip), vehicle: saline); 120 and 130 % of control (dose: 89.0 mg/kg/injection, schedule: Q01DX001 (ip), vehicle: carboxymethylcellulose (CMC)); 126 % of control (dose: 100.0 mg/kg/injection, schedule: Q01DX001 (ip), vehicle: carboxymethylcellulose (CMC)). Further, the T/C reads like this: (dose: 100.0 mg/kg/injection, schedule: Q01DX009 (ip), vehicle: carboxymethylcellulose (CMC)) 101 % of control; (dose: 100.0 mg/kg/injection, schedule: Q04DX003 (ip), vehicle: saline with Tween-80) 159 % of control; under setting [3], 129 and 140 % of control; (dose: 133.0 mg/kg/injection, schedule: Q01DX001 (ip), vehicle: carboxymethylcellulose (CMC)) 125 and 142 % of control; (dose: 150.0 mg/kg/injection, schedule: Q04DX003 (ip), vehicle: saline) 137 and 142 % of control; under setting [11], 97 [4 of 6 alive] and 134 % of control [3 of 4 alive]. The T/C runs as follows: (dose: 200.0 mg/kg/injection, schedule: Q04DX003 (ip), vehicle: saline with Tween-80) 134 % of control; under setting [12], 124 % of control [5 of 6 alive]. In addition, the survivor count by setting is: under setting [11], 6 of 6; under setting [12], 1 of 6; (dose: 400.0 mg/kg/injection, schedule: Q01DX001 (ip), vehicle: carboxymethylcellulose (CMC)) 2 of 4; (dose: 400.0 mg/kg/injection, schedule: Q04DX003 (ip), vehicle: saline with Tween-80) 5 of 6.

In the case of `O=C(NCCF)N[N+](=O)[O-]`, the T/C runs as follows: (dose: 7.5 mg/kg/injection, schedule: Q01DX001 (ip), vehicle: saline) 120 % of control; (dose: 15.0 mg/kg/injection, schedule: Q01DX001 (ip), vehicle: saline) 111 % of control; (dose: 30.0 mg/kg/injection, schedule: Q01DX001 (ip), vehicle: saline) 108 % of control; (dose: 62.0 mg/kg/injection, schedule: Q01DX001 (ip), vehicle: saline) 97 % of control; (dose: 125.0 mg/kg/injection, schedule: Q01DX001 (ip), vehicle: saline) 108 % of control; (dose: 250.0 mg/kg/injection, schedule: Q01DX001 (ip), vehicle: saline) 103 % of control. Moreover, where the note is “dose: 375.0 mg/kg/injection, schedule: Q01DX001 (ip), vehicle: saline”, the T/C was 103 % of control. Also, where the note is “dose: 500.0 mg/kg/injection, schedule: Q01DX001 (ip), vehicle: saline”, the survivor count is listed as 1 of 6.

For `COC(=O)C1(C)COP(=O)(NCc2ccccc2)OC1` (stereo unspecified), the T/C under setting [1] is 94 % of control and the T/C under setting [6] is 89 % of control. Moreover, the survivor count under setting [4] is 4 of 4.

In the case of `CCOC(=O)C(CC(C)C)NC(=O)N(CCCl)CCCl` (stereo unspecified), the T/C reads like this: (dose: 125.0 mg/kg/injection, schedule: Q01DX Z (ip), vehicle: water) 100 % of control; (dose: 250.0 mg/kg/injection, schedule: Q01DX Z (ip), vehicle: saline) 96 % of control; (dose: 250.0 mg/kg/injection, schedule: Q01DX Z (ip), vehicle: water) 106 % of control; (dose: 500.0 mg/kg/injection, schedule: Q01DX Z (ip), vehicle: saline) 112 % of control.

Take `C=CCC[P+](CC)(c1ccccc1)c1ccccc1.F[P-](F)(F)(F)(F)F`: the T/C was 93 % of control (dose: 0.78 mg/kg/injection, schedule: Q04DX003 (ip), vehicle: Klucel (hydroxypropylcellulose) (HPC)); 109 % of control (dose: 1.56 mg/kg/injection, schedule: Q04DX003 (ip), vehicle: Klucel (hydroxypropylcellulose) (HPC)); 94 and 106 % of control (dose: 3.12 mg/kg/injection, schedule: Q04DX003 (ip), vehicle: Klucel (hydroxypropylcellulose) (HPC)). Also, the survivor count by setting is: (dose: 6.25 mg/kg/injection, schedule: Q04DX003 (ip), vehicle: Klucel (hydroxypropylcellulose) (HPC)) 4 of 6; (dose: 12.5 mg/kg/injection, schedule: Q04DX003 (ip), vehicle: Klucel (hydroxypropylcellulose) (HPC)) 1 of 6; (dose: 25.0 mg/kg/injection, schedule: Q04DX003 (ip), vehicle: Klucel (hydroxypropylcellulose) (HPC)) 0 of 6; under setting [8], 0 of 6 and 1 of 6; under setting [9], 0 of 6; under setting [10], 0 of 6. In addition, the survivor count (dose: 400.0 mg/kg/injection, schedule: Q04DX003 (ip), vehicle: Klucel (hydroxypropylcellulose) (HPC)) was 0 of 6.
